Measurements reported in PubChem BioAssay AID1259308 (NCATS, 2017)
The deposit covers about 59,000 reagents; this is a random part of them. Over the whole deposit, about 1,510 (2.6%) got an active call. 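Calls use total luciferase alone and ignore viability, so some active siRNAs may act by altering cell number.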 Entries without a mark were called inactive. The numbers tell different reagents against one gene apart. Further read-outs or replicates are left out here.

Purpose: 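Candidate targets for better recombinant protein yield in mammalian cells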 (primary screen)
Cells: human HEK293 embryonic kidney cells stably expressing firefly luciferase (HEK-CMV-Luc2-Hygro)
Knock-down reagent: single siRNA against human genes, 0.8 pmol siRNA per well
Duration: 72 h
Measured: 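Reporter luminescence and viable-cell signal on separate replicate plates, given as percent of non-targeting control and median/MAD z-scores, plus per-cell luciferase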
Reading the numbers: total luciferase, z-score and total luciferase, % of control: higher = more reporter protein produced
Call rule: 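Active when the median/MAD z-score for overall luciferase is greater than 3; a gene was taken forward for validation with new siRNAs if at least two of its three siRNAs passed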
Calls: active = raised luciferase; inactive = no rise

| Target gene | reagent | total luciferase, z-score | total luciferase, % of control |
| --- | --- | --- | --- |
| OCA2 (OCA2 melanosomal transmembrane protein) | 1 | 1.73 | 116 |
| OCA2 (OCA2 melanosomal transmembrane protein) | 2 | 0.131 | 84.5 |
| OCA2 (OCA2 melanosomal transmembrane protein) | 3 | -0.285 | 76.2 |
| ZFAT (zinc finger and AT-hook domain containing) | 1 | 4.33 (active) | 168 |
| ZFAT (zinc finger and AT-hook domain containing) | 2 | 0.0522 | 82.9 |
| ZFAT (zinc finger and AT-hook domain containing) | 3 | -0.711 | 67.8 |
| ERI3 (ERI1 exoribonuclease family member 3) | 1 | 0.303 | 87.9 |
| ERI3 (ERI1 exoribonuclease family member 3) | 2 | 0.1 | 83.9 |
| ERI3 (ERI1 exoribonuclease family member 3) | 3 | 2.05 | 123 |
| STAMBP (STAM binding protein) | 1 | -0.434 | 73.3 |
| STAMBP (STAM binding protein) | 2 | -0.0177 | 81.5 |
| STAMBP (STAM binding protein) | 3 | -0.955 | 62.9 |
| GNG7 (G protein subunit gamma 7) | 1 | 0.92 | 100 |
| GNG7 (G protein subunit gamma 7) | 2 | 2 | 122 |
| GNG7 (G protein subunit gamma 7) | 3 | 5.18 (active) | 185 |
| SHISA6 (shisa family member 6) | 1 | -1.66 | 48.9 |
| SHISA6 (shisa family member 6) | 2 | 1.82 | 118 |
| SHISA6 (shisa family member 6) | 3 | -0.283 | 76.3 |
| RSPH10B (radial spoke head 10 homolog B) | 1 | 1.47 | 111 |
| RSPH10B (radial spoke head 10 homolog B) | 2 | 0.751 | 96.8 |
| RSPH10B (radial spoke head 10 homolog B) | 3 | -0.445 | 73 |
| CLCN2 (chloride voltage-gated channel 2) | 1 | 0.563 | 93.1 |
| CLCN2 (chloride voltage-gated channel 2) | 2 | -0.147 | 79 |
| CLCN2 (chloride voltage-gated channel 2) | 3 | 1.06 | 103 |
| COL6A1 (collagen type VI alpha 1 chain) | 1 | 0.882 | 99.4 |
| COL6A1 (collagen type VI alpha 1 chain) | 2 | 0.728 | 96.4 |
| COL6A1 (collagen type VI alpha 1 chain) | 3 | 0.473 | 91.3 |
| FTSJ1 (FtsJ RNA 2'-O-methyltransferase 1) | 1 | -1.23 | 57.5 |
| FTSJ1 (FtsJ RNA 2'-O-methyltransferase 1) | 2 | -0.223 | 77.5 |
| FTSJ1 (FtsJ RNA 2'-O-methyltransferase 1) | 3 | -0.477 | 72.4 |
| LOC643496 (retired record) | 1 | 0.0999 | 83.9 |
| LOC643496 (retired record) | 2 | 0.377 | 89.4 |
| LOC643496 (retired record) | 3 | -0.308 | 75.8 |
| FHIT (fragile histidine triad diadenosine triphosphatase) | 1 | -0.0981 | 79.9 |
| FHIT (fragile histidine triad diadenosine triphosphatase) | 2 | 0.264 | 87.1 |
| FHIT (fragile histidine triad diadenosine triphosphatase) | 3 | 0.208 | 86 |
| ETFDH (electron transfer flavoprotein dehydrogenase) | 1 | 0.241 | 86.7 |
| ETFDH (electron transfer flavoprotein dehydrogenase) | 2 | 0.332 | 88.5 |
| ETFDH (electron transfer flavoprotein dehydrogenase) | 3 | -1.01 | 61.8 |

Part of the list above, set out differently.
Target gene,reagent,"total luciferase, z-score","total luciferase, % of control"
ZFAT (zinc finger and AT-hook domain containing),3,-0.711,67.8
ERI3 (ERI1 exoribonuclease family member 3),1,0.303,87.9
ERI3 (ERI1 exoribonuclease family member 3),2,0.1,83.9
ERI3 (ERI1 exoribonuclease family member 3),3,2.05,123
STAMBP (STAM binding protein),1,-0.434,73.3
STAMBP (STAM binding protein),2,-0.0177,81.5
STAMBP (STAM binding protein),3,-0.955,62.9
GNG7 (G protein subunit gamma 7),1,0.92,100
GNG7 (G protein subunit gamma 7),2,2,122
GNG7 (G protein subunit gamma 7),3,5.18 (active),185
SHISA6 (shisa family member 6),1,-1.66,48.9

The list goes on.
| Target gene | reagent | total luciferase, z-score | total luciferase, % of control |
| --- | --- | --- | --- |
| MS4A8 (membrane spanning 4-domains A8) | 1 | 1.2 | 106 |
| MS4A8 (membrane spanning 4-domains A8) | 2 | -0.585 | 70.3 |
| MS4A8 (membrane spanning 4-domains A8) | 3 | -0.697 | 68 |
| SLC13A1 | 1 | 0.0467 | 82.8 |
| SLC13A1 | 2 | -0.861 | 64.8 |
| SLC13A1 | 3 | 0.0221 | 82.3 |
| PGAM2 (phosphoglycerate mutase 2) | 1 | -2.24 | 37.3 |
| PGAM2 (phosphoglycerate mutase 2) | 2 | -0.0875 | 80.1 |
| PGAM2 (phosphoglycerate mutase 2) | 3 | 0.289 | 87.6 |
| NCAPG2 (non-SMC condensin II complex subunit G2) | 1 | -0.316 | 75.6 |
| NCAPG2 (non-SMC condensin II complex subunit G2) | 2 | 0.112 | 84.1 |
| NCAPG2 (non-SMC condensin II complex subunit G2) | 3 | -1.15 | 59.1 |
| GML (glycosylphosphatidylinositol anchored molecule like) | 1 | 0.504 | 91.9 |
| GML (glycosylphosphatidylinositol anchored molecule like) | 2 | -0.292 | 76.1 |
| GML (glycosylphosphatidylinositol anchored molecule like) | 3 | -0.0434 | 81 |
| CHAT (choline O-acetyltransferase) | 1 | 1 | 102 |
| CHAT (choline O-acetyltransferase) | 2 | 6.07 (active) | 203 |
| CHAT (choline O-acetyltransferase) | 3 | -0.369 | 74.6 |
| FAM20B (FAM20B glycosaminoglycan xylosylkinase) | 1 | -2.14 | 39.3 |
| FAM20B (FAM20B glycosaminoglycan xylosylkinase) | 2 | -0.282 | 76.3 |
| FAM20B (FAM20B glycosaminoglycan xylosylkinase) | 3 | -1.32 | 55.5 |
| LOC441239 | 1 | -0.621 | 69.5 |
| LOC441239 | 2 | 0.268 | 87.2 |
| LOC441239 | 3 | -0.338 | 75.2 |
| RUNX1 (RUNX family transcription factor 1) | 1 | -0.362 | 74.7 |
| RUNX1 (RUNX family transcription factor 1) | 2 | -0.88 | 64.4 |
| RUNX1 (RUNX family transcription factor 1) | 3 | -2.28 | 36.5 |
| MOK (MOK protein kinase) | 1 | 0.611 | 94 |
| MOK (MOK protein kinase) | 2 | -1.52 | 51.7 |
| MOK (MOK protein kinase) | 3 | -0.329 | 75.4 |
| IL13 (interleukin 13) | 1 | -1.07 | 60.6 |
| IL13 (interleukin 13) | 2 | -0.449 | 73 |
| IL13 (interleukin 13) | 3 | 2.11 | 124 |
| EMP2 (epithelial membrane protein 2) | 1 | 1.51 | 112 |
| EMP2 (epithelial membrane protein 2) | 2 | -0.137 | 79.2 |
| EMP2 (epithelial membrane protein 2) | 3 | -0.585 | 70.2 |
